For one compound, level results are on record in patent publication US20240010681A1, “PEPTIDES AND METHODS OF USE” (REALTA LIFE SCIENCES, INC., priority 2020, published 2024).

A short description of this data set: in vivo. The following applies: male, Wistar, rat, 160 mg/ml in 5 microliters.

Turning to `CC[C@H](C)[C@H](N)C(=O)N[C@@H](C)C(=O)N[C@@H](CC(C)C)C(=O)N[C@H](C(=O)N[C@@H](CC(C)C)C(=O)N[C@@H](CCC(=O)O)C(=O)N1CCC[C@H]1C(=O)N[C@H](C(=O)N[C@@H](CS)C(=O)N[C@@H](CS)C(=O)N[C@@H](CCC(N)=O)C(=O)N[C@@H](CCC(=O)O)C(=O)N[C@@H](CCCNC(=N)N)C(=O)N[C@@H](C)C(=O)N[C@@H](C)C(=O)NCCOCCOCCOCCOCCOCCOCCOCCOCCOCCOCCOCCOCCOCCOCCOCCOCCOCCOCCOCCOCCOCCOCCOCCOCCC(=O)O)[C@@H](C)CC)[C@@H](C)CC` [RLS-0071], the level at 24 h worked out at 120 µg/mL.
